Test results published in patent US20040132120.
Results from cells or extracts need not show a direct contact. No signal at the amounts used counts as a negative.

By UniProt entry, the sequences of proteins in these tests, tags left out. Where a name states a change or a piece, a line headed by the entry shows the natural chain unless it says otherwise. Residues count along the entry.
UniProt Q9H3D4, 40-680: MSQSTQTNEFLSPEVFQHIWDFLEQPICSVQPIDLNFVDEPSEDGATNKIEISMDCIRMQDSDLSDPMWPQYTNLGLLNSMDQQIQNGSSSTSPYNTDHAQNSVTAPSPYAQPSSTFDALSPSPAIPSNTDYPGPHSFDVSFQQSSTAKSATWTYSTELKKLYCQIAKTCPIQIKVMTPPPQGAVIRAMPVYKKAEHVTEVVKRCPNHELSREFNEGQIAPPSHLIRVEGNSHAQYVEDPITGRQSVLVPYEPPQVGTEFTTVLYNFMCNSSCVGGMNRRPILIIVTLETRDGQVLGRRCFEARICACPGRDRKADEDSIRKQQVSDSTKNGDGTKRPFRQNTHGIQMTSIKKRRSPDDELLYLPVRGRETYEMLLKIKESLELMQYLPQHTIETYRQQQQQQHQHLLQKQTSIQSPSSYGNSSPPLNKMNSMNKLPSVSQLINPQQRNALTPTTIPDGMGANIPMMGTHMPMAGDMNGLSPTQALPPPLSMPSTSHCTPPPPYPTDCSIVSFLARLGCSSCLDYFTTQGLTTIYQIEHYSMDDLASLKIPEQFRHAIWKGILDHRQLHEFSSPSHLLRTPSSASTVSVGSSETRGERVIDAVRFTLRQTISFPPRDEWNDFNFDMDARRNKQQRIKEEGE

Legend:
Test in all cases: EMSA
TAp63α = TAp63α (UniProt Q9H3D4); conditions: 100 pM probe, room temperature, protein in a lysate after overexpression, label: 32P
ΔNp63γ = ΔNp63γ (UniProt Q9H3D4); conditions: 100 pM probe, room temperature, protein in a lysate after overexpression, label: 32P
GFP = GFP (UniProt P42212); conditions: negative control lysate, protein in a lysate after overexpression, label: 32P

| Sequence | binding result (TAp63α) | binding result (ΔNp63γ) | binding result (GFP) | binding result (TAp63α; no shift, variant of PG) | binding result (ΔNp63γ; no shift, variant of PG) | binding result (GFP; variant of PG) |
| --- | --- | --- | --- | --- | --- | --- |
| CCTGCCTGGACTTGCCTGG (double strand) [PG] | binds | binds | no binding | – | – | – |
| CCTTAATGGACTTTAATGG (double strand) [MG] | – | – | – | no binding | no binding | no binding |
